Experimental data published in article PMC1559714.
Results are given in words; binding and its absence hold for the method and conditions named. Binding seen in cells or lysates may run through a third protein. Some binding calls cover weakened binding; strength is not graded here.

Sequences of proteins named here, by UniProt entry; tags and fusion partners are left off. Residues count along the entry.
UniProt P14210, residues 32-728: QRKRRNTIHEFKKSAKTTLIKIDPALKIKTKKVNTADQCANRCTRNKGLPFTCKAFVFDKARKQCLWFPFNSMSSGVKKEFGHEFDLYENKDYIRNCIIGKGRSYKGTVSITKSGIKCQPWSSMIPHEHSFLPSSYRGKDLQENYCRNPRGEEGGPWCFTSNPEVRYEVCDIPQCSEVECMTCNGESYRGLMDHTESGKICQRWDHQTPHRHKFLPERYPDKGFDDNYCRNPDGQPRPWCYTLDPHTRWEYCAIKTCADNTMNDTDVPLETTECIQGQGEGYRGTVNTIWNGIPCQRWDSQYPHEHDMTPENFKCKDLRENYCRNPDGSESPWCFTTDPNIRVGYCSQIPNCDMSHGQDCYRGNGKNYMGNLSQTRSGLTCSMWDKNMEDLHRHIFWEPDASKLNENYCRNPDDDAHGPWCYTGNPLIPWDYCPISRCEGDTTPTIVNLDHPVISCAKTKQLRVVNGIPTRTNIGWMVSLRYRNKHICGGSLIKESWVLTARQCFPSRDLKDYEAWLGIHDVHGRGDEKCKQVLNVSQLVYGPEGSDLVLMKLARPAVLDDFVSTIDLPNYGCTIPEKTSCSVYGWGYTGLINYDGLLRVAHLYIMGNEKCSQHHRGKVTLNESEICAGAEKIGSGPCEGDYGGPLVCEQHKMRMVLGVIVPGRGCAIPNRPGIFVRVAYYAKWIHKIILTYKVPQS
UniProt P02769, residues 25-607: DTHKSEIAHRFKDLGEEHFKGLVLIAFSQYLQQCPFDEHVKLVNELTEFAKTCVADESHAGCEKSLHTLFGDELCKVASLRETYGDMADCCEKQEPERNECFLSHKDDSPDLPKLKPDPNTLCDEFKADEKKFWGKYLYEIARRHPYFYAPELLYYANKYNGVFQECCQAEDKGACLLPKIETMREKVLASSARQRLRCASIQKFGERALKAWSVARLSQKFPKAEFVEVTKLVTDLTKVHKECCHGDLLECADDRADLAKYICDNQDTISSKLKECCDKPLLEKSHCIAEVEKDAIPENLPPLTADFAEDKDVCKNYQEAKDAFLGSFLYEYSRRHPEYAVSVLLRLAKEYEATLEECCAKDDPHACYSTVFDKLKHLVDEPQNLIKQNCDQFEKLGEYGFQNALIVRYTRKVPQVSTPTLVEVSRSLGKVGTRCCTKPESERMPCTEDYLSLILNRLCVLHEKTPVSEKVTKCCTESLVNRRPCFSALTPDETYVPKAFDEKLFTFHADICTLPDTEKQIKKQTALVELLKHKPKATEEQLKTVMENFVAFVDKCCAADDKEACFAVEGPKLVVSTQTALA
UniProt P08581, residues 25-1390: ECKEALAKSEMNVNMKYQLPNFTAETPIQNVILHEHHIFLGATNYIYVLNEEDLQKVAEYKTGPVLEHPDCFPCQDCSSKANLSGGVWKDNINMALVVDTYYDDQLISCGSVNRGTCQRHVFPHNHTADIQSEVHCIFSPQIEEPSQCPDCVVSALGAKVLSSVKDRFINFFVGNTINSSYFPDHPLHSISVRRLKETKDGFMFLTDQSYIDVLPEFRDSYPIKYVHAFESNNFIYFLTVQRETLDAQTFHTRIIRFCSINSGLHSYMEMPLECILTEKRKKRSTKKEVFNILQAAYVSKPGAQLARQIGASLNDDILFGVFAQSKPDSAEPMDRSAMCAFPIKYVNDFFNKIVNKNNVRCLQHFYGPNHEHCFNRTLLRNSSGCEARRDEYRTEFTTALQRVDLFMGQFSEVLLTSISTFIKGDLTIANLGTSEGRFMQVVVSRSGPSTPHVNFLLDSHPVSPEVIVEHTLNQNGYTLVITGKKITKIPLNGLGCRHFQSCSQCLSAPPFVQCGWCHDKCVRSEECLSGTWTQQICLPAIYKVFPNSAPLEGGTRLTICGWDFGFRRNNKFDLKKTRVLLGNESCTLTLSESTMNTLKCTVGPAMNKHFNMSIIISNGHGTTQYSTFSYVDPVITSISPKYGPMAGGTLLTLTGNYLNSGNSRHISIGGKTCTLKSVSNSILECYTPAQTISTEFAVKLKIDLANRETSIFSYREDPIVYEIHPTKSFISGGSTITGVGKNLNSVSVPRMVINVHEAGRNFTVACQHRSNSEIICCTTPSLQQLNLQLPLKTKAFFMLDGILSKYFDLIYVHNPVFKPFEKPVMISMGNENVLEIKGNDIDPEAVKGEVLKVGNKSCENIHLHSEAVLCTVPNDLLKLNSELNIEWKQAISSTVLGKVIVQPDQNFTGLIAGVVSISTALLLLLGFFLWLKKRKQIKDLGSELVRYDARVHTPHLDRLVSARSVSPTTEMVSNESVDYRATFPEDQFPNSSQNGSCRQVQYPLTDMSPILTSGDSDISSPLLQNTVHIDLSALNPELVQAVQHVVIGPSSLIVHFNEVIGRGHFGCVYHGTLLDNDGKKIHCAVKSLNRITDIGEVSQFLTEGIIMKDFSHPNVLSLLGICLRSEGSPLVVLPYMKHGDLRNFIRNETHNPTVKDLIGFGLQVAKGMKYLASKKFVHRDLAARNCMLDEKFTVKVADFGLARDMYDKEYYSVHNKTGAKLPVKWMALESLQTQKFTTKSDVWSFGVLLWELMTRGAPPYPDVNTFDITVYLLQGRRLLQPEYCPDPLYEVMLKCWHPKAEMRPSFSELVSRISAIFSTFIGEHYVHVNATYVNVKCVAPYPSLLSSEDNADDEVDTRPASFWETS

Experiments:
[1] = molecular target: Hepatocyte Growth Factor (UniProt P14210); experiment: pull-down; HGF (or BSA as control) immobilized on agarose beads, incubated with total cell lysates of PC3 or C4-2 cells; precipitate read by silver staining and immunoblotting; only the target purified
[2] = molecular target: BSA (bovine (from the name BSA)) (UniProt P02769); experiment: as above

Substance: Met (from UniProt P08581 25-1390) (receptor)
- binding [1]: binds
- binding [2]: no binding
